Laboratory results reported in paper PMC10386108.
These are yes or no findings as the source states them, for the method shown. Some results given as binding are weak or reduced against the parent protein; the word gives no strength. Where a sequence is shown, tags or fusion partners need not be part of it.

Experiments:
[1] = target: T1, Strep II nanotag displayed on recombinant Qβ phage (QβStrep); test: ELISA; both purified
T1 sequence (peptide): DVEWLDERVPLVET

[2] = target: T1, Strep II nanotag displayed on recombinant Qβ phage (QβStrep); test: far-Western, overlay or dot blot; both purified

- binding [1]: binds
- binding [2]: binds
Substance: streptavidin conjugated to HRP (from UniProt P22629 25-183)
